Article PMC7819943, “Rice protein-binding microarrays: a tool to detect cis-acting elements near promoter regions in rice”
Some of the results follow.

The chains behind the UniProt entries cited, without tags or fusion partners.
UniProt Q0JBA9, entry or part of it: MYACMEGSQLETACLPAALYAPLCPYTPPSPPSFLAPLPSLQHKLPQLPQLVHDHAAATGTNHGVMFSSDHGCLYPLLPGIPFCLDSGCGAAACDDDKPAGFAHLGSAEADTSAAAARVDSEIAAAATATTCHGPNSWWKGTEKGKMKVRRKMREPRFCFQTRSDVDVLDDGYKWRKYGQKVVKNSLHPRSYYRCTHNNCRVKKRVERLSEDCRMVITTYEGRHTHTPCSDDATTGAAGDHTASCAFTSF

target: OsWRKY34 (Oryza sativa, UniProt Q0JBA9 1-250); test: protein-binding microarray (RPBM); PBS, 2% BSA, 51.3 ng/ul salmon testes DNA, 50 uM zinc acetate, 200 nM TF, 25 C, 1 h; high values mean tight binding; conditions: protein: recombinant; tags: N-terminal polyhistidine and DsRed monomer fusion (pET32a); label: CyDye5-dUTP incorporated in the synthesized complementary strand; 3' TTTTT single-stranded linker to array surface; dsDNA, one strand shown
Method in brief: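 Transcription factors, each fused N-terminally to a polyhistidine tag and DsRed, were expressed in E. coli BL21-CodonPlus and purified on Ni–NTA. A custom Agilent array was made double-stranded by primer extension with Cy5-dUTP and blocked with 2% BSA. It was incubated with 200 nM protein in PBS, 2% BSA, salmon testes DNA and 50 µM zinc acetate at 25 °C for 1 h, then washed. The binding signal is per-feature fluorescence intensity (arbitrary units) read on an Axon 4000B scanner.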

Sequence | binding signal
TATCGCACGTATCTACCAAATTCTTTGTACCGTGGGTACACGGAGTCACCTAGTGCAG | 9210 fluorescence intensity (a.u.)
GCCGCTTCTACTACTACTAACTAGCCTATTTCGTCTTCCTCGGAGTCACCTAGTGCAG | 8400 fluorescence intensity (a.u.)
GGGCATCCCTACTACGATTTCGTTATGTATTATTTGTTAACGGAGTCACCTAGTGCAG | 9810 fluorescence intensity (a.u.)
CTCAGCCGCCACGTCGCATAAAACCGGGGTCAAAACCACCCGGAGTCACCTAGTGCAG | 9130 fluorescence intensity (a.u.)
TCTTGGTACTGAACTACTTATTGCTGCTTTCATGTTGCCGCGGAGTCACCTAGTGCAG | 10000 fluorescence intensity (a.u.)
AGGGTCTATTCACTTTGCTACCATTTTCAACCTTACCAAACGGAGTCACCTAGTGCAG | 11300 fluorescence intensity (a.u.)
ACTTTTAGTTGGATTACTTCTTTTTGTGAACGTTTTGCTACGGAGTCACCTAGTGCAG | 10100 fluorescence intensity (a.u.)
GCCTAATGATTCCATCCGATCTGAGTGTGTTGCCTGTAGACGGAGTCACCTAGTGCAG | 9780 fluorescence intensity (a.u.)
GACCCTATAAATTCGGCCATGTTTAAACCATTTCACCACACGGAGTCACCTAGTGCAG | 12700 fluorescence intensity (a.u.)
TTTCATTAGTGCTACGATTGCATTTTGTCAATTCAATAATCGGAGTCACCTAGTGCAG | 9070 fluorescence intensity (a.u.)
CGCGCCCTCCTCCGCCGCCGCTCGCCGCCGTTCGTCTCCGCGGAGTCACCTAGTGCAG | 9840 fluorescence intensity (a.u.)
TTTGCAACTTCTGTTTTATACTTCTACTTAGTATCAAAATCGGAGTCACCTAGTGCAG | 8160 fluorescence intensity (a.u.)
GCACGCGCACATGCGACCGCACGCACGGCACCACACACACCGGAGTCACCTAGTGCAG | 8920 fluorescence intensity (a.u.)
CATCGTTGAACTTTATCGTGCCCTTCACACCATTCCGTCGCGGAGTCACCTAGTGCAG | 8130 fluorescence intensity (a.u.)
ATTATATTTGTGTGTATAAGTAACTTTAAGATTTGTGATGCGGAGTCACCTAGTGCAG | 8310 fluorescence intensity (a.u.)
GAAGACTAGTCATCTTGCTATCACGGTCACATTAATTACCCGGAGTCACCTAGTGCAG | 10300 fluorescence intensity (a.u.)
GCTGCCGCCCTGTTCGTGCCATAGCGCAACCCAGCTCCGCCGGAGTCACCTAGTGCAG | 8120 fluorescence intensity (a.u.)
ATCAGTCATTCTGCTTGCTTACCCGTTTTGGTTGACTTGTCGGAGTCACCTAGTGCAG | 12500 fluorescence intensity (a.u.)
TTTTGCATCCATCTGTTTTACACTTACATTCCTATTAAAACGGAGTCACCTAGTGCAG | 9960 fluorescence intensity (a.u.)
CGTGGGCCCCACCCGTGCCAGCTCACCTCATCCCCACCACCGGAGTCACCTAGTGCAG | 8940 fluorescence intensity (a.u.)
GTTCTTTCGGCCGCCTCGCCTTCCACCGCGTCCGCGAATTCGGAGTCACCTAGTGCAG | 12700 fluorescence intensity (a.u.)

Taken from above.
binding signal, CTCAGCCGCCACGTCGCATAAAACCGGGGTCAAAACCACCCGGAGTCACCTAGTGCAG reads 9130 fluorescence intensity (a.u.)
binding signal, GTTCTTTCGGCCGCCTCGCCTTCCACCGCGTCCGCGAATTCGGAGTCACCTAGTGCAG reads 12700 fluorescence intensity (a.u.)

(further entries)

Sequence | binding signal
TCTTTATGACTCCTTTGTTGCACCTTATAGTTTAGTGTGTCGGAGTCACCTAGTGCAG | 11300 fluorescence intensity (a.u.)
ACATTTAAAACCAACTTTCACCCACCCACCCACTGCATTCCGGAGTCACCTAGTGCAG | 9140 fluorescence intensity (a.u.)
AGTCAGTGGGTAAATTCTTTAAAAACTCCTATGTTTTTTCCGGAGTCACCTAGTGCAG | 9550 fluorescence intensity (a.u.)
TCTCCGTTTCAAAATAGGTCCATTTTTCACCCAAACTACTCGGAGTCACCTAGTGCAG | 8660 fluorescence intensity (a.u.)
CATTTGTTTTATTTTAGCATTTGTCACTTACATGTGGGACCGGAGTCACCTAGTGCAG | 8400 fluorescence intensity (a.u.)
CAAATTGCTCAGCTGATCCGTGCCTATTTTTTTATTATTTCGGAGTCACCTAGTGCAG | 8120 fluorescence intensity (a.u.)
AATTGTTGGATCACGGTTTTACATGATGGGTTACAAGACCCGGAGTCACCTAGTGCAG | 8060 fluorescence intensity (a.u.)
GTGGATGGCCATCGGGGTAGAAGAGATGTGATGGGTTGACCGGAGTCACCTAGTGCAG | 9160 fluorescence intensity (a.u.)
GCCGATCCCCTAGCTGACGTGGCAGCTACCTCAGCGCCAACGGAGTCACCTAGTGCAG | 8470 fluorescence intensity (a.u.)
TCCAACGCCGCTGTCATTTCCAATCTCCCACCCATTTACTCGGAGTCACCTAGTGCAG | 9400 fluorescence intensity (a.u.)
TTTAACTGTCATCCTTGTCAGCCTCACCGATTTGCTGTTGCGGAGTCACCTAGTGCAG | 10000 fluorescence intensity (a.u.)
GTGGTTAGTGGTCATTGGTCATCCTTTCTCTTCTCAGATCCGGAGTCACCTAGTGCAG | 8260 fluorescence intensity (a.u.)
GTCCGGGGTGGTGGTGGCCGCGACCGCGAGAGCGAATCAACGGAGTCACCTAGTGCAG | 12900 fluorescence intensity (a.u.)
ACCCACCACTCCTTATCCACCTAGTCCTTATCCTCTTGTTCGGAGTCACCTAGTGCAG | 9130 fluorescence intensity (a.u.)
TCTCCTCTCCCAATCGCGCGCATCCGACCTCCTTCTTTCCCGGAGTCACCTAGTGCAG | 8350 fluorescence intensity (a.u.)
CTCCAGAAGATAACCAGCGCGCGCTGATCTCGTCGTCTTCCGGAGTCACCTAGTGCAG | 8100 fluorescence intensity (a.u.)
CTGTCTATGTTTTTTATGTTTAGCAGCTGCGCTGCTGCAGCGGAGTCACCTAGTGCAG | 10100 fluorescence intensity (a.u.)
ACTTTATTATCTAAAGTACTTTAAGCGCAACTTTTCGTTTCGGAGTCACCTAGTGCAG | 11600 fluorescence intensity (a.u.)
TTGAGTTTTTGCTCGTAGTGTTTGACCACTCGTTTTATTACGGAGTCACCTAGTGCAG | 9230 fluorescence intensity (a.u.)
AAAGCATTTCTCCTGCCTTCTCGTGTCTAACTGTCTATATCGGAGTCACCTAGTGCAG | 8940 fluorescence intensity (a.u.)
CCACCCACCTCACCCACCACCTCTCTCTCTACTCCTCCTCCGGAGTCACCTAGTGCAG | 8720 fluorescence intensity (a.u.)

Fetched one by one from the list above:
Sequence | binding signal
GCCGATCCCCTAGCTGACGTGGCAGCTACCTCAGCGCCAACGGAGTCACCTAGTGCAG | 8470 fluorescence intensity (a.u.)
TCTTTATGACTCCTTTGTTGCACCTTATAGTTTAGTGTGTCGGAGTCACCTAGTGCAG | 11300 fluorescence intensity (a.u.)

More results:

Sequence | binding signal
GCCAAACAAACCATACTGCTGCTACAACTAGCACTCCTAACGGAGTCACCTAGTGCAG | 8670 fluorescence intensity (a.u.)
ATGCTTTATCCGTTCTATATTATATTTTGACTTTTTAAGTCGGAGTCACCTAGTGCAG | 8270 fluorescence intensity (a.u.)
TACTTTGTATGTGGCTTGTTTTTGTTTATGTTCAATTATCCGGAGTCACCTAGTGCAG | 8370 fluorescence intensity (a.u.)
GTACGAAAAACAGGCACAGTACACTATCTTGTCCTAACTGCGGAGTCACCTAGTGCAG | 9790 fluorescence intensity (a.u.)
TGTGGTGGTGGTTGCTTCGAGTTTGCACAATATTTTTGGCCGGAGTCACCTAGTGCAG | 10000 fluorescence intensity (a.u.)
CTTCCCTAAATGTTTGACGCCGTTGACTTTTCTAAACATGCGGAGTCACCTAGTGCAG | 18600 fluorescence intensity (a.u.)
TTGCTTCATTTATCAAGTTGGGTGCTTCTACATCTTCCCCCGGAGTCACCTAGTGCAG | 10400 fluorescence intensity (a.u.)
ACGGATAGATACATCTTTGCCACTGCAGCTGCACTGCACACGGAGTCACCTAGTGCAG | 8840 fluorescence intensity (a.u.)
ATGTTTGACCGTTCGTCTTATTCGAAAACTTTTATGAAATCGGAGTCACCTAGTGCAG | 9600 fluorescence intensity (a.u.)
ACTAACTCCATTTTTTTTTGTTACTGTCTGCTAGCCGAAACGGAGTCACCTAGTGCAG | 8860 fluorescence intensity (a.u.)
GTTGAAGAGGGAGATGGCGACGGCGGGGCTGGCACGCGCGCGGAGTCACCTAGTGCAG | 8550 fluorescence intensity (a.u.)
GGTCTCATCCTGATCGATCTCTGCGAGTTTATCCAATATCCGGAGTCACCTAGTGCAG | 9180 fluorescence intensity (a.u.)
TGTGCTGCTCGGCGGCGCCTTCGTGACGGCCGCGCGGCCGCGGAGTCACCTAGTGCAG | 8320 fluorescence intensity (a.u.)
ACAAGATTTCCTTTTTTACGCTCAATCTCCTTCTCCCAAACGGAGTCACCTAGTGCAG | 8260 fluorescence intensity (a.u.)
TTGTGTGTTCTTCCATCTGGCAATGGCATCTGCAGCAGCACGGAGTCACCTAGTGCAG | 9530 fluorescence intensity (a.u.)
GTCTTCTGTTGCTTCTAGTGGCGCCCGCTGTGTCCGTCATCGGAGTCACCTAGTGCAG | 9610 fluorescence intensity (a.u.)
ACCAATCACCACCGCCCAACGCGCACACGCCCACGCGCTCCGGAGTCACCTAGTGCAG | 10500 fluorescence intensity (a.u.)
CCTAATTTTTTCCTCAGGAAAGTTACTGACATTGATTCTTCGGAGTCACCTAGTGCAG | 8650 fluorescence intensity (a.u.)
ACATCAAAATTTTTTTACACACATAAAGTTCCAACTTTTTCGGAGTCACCTAGTGCAG | 8260 fluorescence intensity (a.u.)
CTGGGTCATCGTCCCATGCGACGTTGACATAGTATTAGAACGGAGTCACCTAGTGCAG | 10400 fluorescence intensity (a.u.)
GACGTTTTTGGGGTGGGCCGGCCCGTCCTCCGTTGGGTCGCGGAGTCACCTAGTGCAG | 9310 fluorescence intensity (a.u.)

In another format: entries from further up.

| Sequence | binding signal |
| --- | --- |
| TTGTGTGTTCTTCCATCTGGCAATGGCATCTGCAGCAGCACGGAGTCACCTAGTGCAG | 9530 fluorescence intensity (a.u.) |
| GTCTTCTGTTGCTTCTAGTGGCGCCCGCTGTGTCCGTCATCGGAGTCACCTAGTGCAG | 9610 fluorescence intensity (a.u.) |

Next entries:

Sequence | binding signal
CATTTTTGCAAAGTTTGGTTGGGGTGGAAGATGTCCGGCCCGGAGTCACCTAGTGCAG | 9670 fluorescence intensity (a.u.)
TGCATTATATTTCAAGATTCCTATGTGTTCAATTCATATACGGAGTCACCTAGTGCAG | 9250 fluorescence intensity (a.u.)
TACAACAACCCATTTTCCAAGTAGTACAAGTCTCCATGTCCGGAGTCACCTAGTGCAG | 8040 fluorescence intensity (a.u.)
TCTCATATCCCGATCATGGTCTCTAGCAATTAAATTCCGTCGGAGTCACCTAGTGCAG | 8900 fluorescence intensity (a.u.)
TTCTCCCACCGCATCCTCTCTCCCCTTGAGTATTTACTTTCGGAGTCACCTAGTGCAG | 8370 fluorescence intensity (a.u.)
GGGGATTAAAACAATGTGGGTCGTTAGATCTTTTCAGTCTCGGAGTCACCTAGTGCAG | 8120 fluorescence intensity (a.u.)
ATTTTCTTCCCAACCAATCACAACTCTCCACCATTCACTTCGGAGTCACCTAGTGCAG | 8250 fluorescence intensity (a.u.)
CGTGAATCCTCGCATTATAGTTTATGGTCACTGTTATATACGGAGTCACCTAGTGCAG | 9300 fluorescence intensity (a.u.)
CTCGATCCAGCGCTGTCACAGTGTCACGCCAAGCAAAACACGGAGTCACCTAGTGCAG | 8790 fluorescence intensity (a.u.)
TCGTACTAGTACTACCGTCTACAGCGTCCCGCTGATGCTCCGGAGTCACCTAGTGCAG | 8990 fluorescence intensity (a.u.)
GTTCTCTCGCCGTACACCGTCGTCGCCGACCGGCTCCCTCCGGAGTCACCTAGTGCAG | 10100 fluorescence intensity (a.u.)
CTCGTCTCACCCTGAAGCCGTATTCTGTTTCTTTCTTTTCCGGAGTCACCTAGTGCAG | 9060 fluorescence intensity (a.u.)
CTATTCTCTCTCATTTTATCCATATATTTTATTATTTTTTCGGAGTCACCTAGTGCAG | 8900 fluorescence intensity (a.u.)
TTCACAAATTGGCCATCTTATTCTTTTCGTAGCGTGCAAACGGAGTCACCTAGTGCAG | 9010 fluorescence intensity (a.u.)
CCTCCTCTCTATCTCTCTCTCTCTCTCTCTTGGTTTTCCGCGGAGTCACCTAGTGCAG | 10500 fluorescence intensity (a.u.)
CCGCCGCCGCCGCCGCCGCCGCAGCCGAGCGACCGTCCGACGGAGTCACCTAGTGCAG | 8120 fluorescence intensity (a.u.)
CCACTAATTTTCGTCATTTTTTATAATATTTTCACAAATTCGGAGTCACCTAGTGCAG | 10000 fluorescence intensity (a.u.)
CTCTTATAGTCTCTATCTCCTGTATACGCTTATATATAGACGGAGTCACCTAGTGCAG | 8510 fluorescence intensity (a.u.)
ATAAAGTGGGGTTGGTTTGGCTGCTTTCTCGATTAGACCGCGGAGTCACCTAGTGCAG | 9620 fluorescence intensity (a.u.)
GGGTTGGGTCTTCTTTGAACTAATTCATGTGGAAATCCTACGGAGTCACCTAGTGCAG | 15700 fluorescence intensity (a.u.)
TCTGATAATATCTTGTGGTTTCTTTCTTCTTCCCTGGATCCGGAGTCACCTAGTGCAG | 8320 fluorescence intensity (a.u.)
